According to the supplement of paper PMC10849652:
Some of the results follow.

Amino acid sequences for entries named in this document (tags omitted). A change or cut given only in a name is not applied to a line headed by its entry.
UniProt Q13615: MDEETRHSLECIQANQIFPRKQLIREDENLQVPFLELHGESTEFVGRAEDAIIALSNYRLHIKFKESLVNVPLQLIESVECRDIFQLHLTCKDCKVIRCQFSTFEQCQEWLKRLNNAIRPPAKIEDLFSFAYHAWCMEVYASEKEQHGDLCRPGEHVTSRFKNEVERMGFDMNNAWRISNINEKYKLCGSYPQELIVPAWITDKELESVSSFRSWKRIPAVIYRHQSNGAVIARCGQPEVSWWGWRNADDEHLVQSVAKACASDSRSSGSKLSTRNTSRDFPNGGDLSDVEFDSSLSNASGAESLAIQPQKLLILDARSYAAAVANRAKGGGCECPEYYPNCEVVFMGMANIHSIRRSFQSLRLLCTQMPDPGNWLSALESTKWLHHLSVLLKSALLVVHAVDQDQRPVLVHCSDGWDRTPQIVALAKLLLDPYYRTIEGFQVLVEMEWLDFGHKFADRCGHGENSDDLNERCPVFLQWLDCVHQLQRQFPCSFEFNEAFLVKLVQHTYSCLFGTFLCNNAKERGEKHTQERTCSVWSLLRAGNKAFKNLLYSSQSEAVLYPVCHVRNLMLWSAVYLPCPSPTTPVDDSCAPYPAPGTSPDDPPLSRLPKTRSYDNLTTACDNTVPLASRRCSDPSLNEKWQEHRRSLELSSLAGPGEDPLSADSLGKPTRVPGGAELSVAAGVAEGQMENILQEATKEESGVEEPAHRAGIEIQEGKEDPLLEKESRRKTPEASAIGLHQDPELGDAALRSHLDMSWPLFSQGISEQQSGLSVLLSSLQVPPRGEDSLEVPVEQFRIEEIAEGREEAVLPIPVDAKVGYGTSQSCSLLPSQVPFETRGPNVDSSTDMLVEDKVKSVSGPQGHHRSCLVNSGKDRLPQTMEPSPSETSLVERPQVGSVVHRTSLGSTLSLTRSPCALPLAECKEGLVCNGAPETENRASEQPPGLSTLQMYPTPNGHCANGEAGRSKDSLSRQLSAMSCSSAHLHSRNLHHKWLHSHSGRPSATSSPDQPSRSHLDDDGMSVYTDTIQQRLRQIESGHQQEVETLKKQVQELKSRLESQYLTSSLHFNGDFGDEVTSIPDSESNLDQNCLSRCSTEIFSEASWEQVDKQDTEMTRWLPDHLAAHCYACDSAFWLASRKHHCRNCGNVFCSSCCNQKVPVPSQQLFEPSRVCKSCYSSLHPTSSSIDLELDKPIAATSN
UniProt Q7Z6M4: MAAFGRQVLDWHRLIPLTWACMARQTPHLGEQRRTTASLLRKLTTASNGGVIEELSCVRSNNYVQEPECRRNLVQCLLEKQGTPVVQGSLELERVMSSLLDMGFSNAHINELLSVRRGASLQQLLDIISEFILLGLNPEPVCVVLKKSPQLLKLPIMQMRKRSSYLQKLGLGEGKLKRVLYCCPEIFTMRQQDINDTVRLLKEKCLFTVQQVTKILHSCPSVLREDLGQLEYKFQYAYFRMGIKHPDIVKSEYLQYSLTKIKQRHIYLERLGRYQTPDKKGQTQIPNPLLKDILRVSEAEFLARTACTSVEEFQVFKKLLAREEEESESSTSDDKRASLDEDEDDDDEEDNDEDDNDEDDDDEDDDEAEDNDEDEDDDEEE
UniProt Q13505: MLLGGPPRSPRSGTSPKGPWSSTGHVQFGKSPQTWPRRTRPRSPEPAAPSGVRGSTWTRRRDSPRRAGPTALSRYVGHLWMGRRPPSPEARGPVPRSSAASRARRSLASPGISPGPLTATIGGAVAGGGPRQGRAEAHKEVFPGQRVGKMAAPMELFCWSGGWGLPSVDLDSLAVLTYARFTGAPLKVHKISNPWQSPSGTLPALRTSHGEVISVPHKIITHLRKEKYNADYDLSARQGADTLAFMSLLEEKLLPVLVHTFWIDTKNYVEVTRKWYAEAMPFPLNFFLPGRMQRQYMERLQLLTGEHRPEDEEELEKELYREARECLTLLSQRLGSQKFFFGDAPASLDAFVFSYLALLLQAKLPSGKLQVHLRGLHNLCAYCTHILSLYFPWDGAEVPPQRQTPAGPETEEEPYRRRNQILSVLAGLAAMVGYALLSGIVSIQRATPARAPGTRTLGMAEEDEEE
UniProt Q9Y6C9: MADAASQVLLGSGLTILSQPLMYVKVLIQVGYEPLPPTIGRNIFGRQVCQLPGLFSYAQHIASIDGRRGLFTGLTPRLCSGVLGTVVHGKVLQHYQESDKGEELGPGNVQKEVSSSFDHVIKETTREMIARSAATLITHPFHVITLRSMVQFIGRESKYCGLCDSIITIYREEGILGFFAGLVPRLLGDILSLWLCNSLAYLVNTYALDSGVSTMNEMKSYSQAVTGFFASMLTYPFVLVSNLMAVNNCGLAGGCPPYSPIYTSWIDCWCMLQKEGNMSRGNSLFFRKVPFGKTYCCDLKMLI
UniProt Q2M296: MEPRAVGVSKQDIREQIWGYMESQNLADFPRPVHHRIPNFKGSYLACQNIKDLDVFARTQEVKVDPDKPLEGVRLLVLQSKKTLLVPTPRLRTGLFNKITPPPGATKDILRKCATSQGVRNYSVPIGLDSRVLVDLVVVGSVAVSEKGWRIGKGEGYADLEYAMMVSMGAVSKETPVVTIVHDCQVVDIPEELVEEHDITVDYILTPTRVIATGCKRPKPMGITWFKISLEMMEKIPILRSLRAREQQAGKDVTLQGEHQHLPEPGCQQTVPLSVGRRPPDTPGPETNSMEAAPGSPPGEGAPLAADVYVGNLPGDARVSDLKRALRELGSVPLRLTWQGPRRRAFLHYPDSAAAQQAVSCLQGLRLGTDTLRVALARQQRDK
UniProt Q9UBK8: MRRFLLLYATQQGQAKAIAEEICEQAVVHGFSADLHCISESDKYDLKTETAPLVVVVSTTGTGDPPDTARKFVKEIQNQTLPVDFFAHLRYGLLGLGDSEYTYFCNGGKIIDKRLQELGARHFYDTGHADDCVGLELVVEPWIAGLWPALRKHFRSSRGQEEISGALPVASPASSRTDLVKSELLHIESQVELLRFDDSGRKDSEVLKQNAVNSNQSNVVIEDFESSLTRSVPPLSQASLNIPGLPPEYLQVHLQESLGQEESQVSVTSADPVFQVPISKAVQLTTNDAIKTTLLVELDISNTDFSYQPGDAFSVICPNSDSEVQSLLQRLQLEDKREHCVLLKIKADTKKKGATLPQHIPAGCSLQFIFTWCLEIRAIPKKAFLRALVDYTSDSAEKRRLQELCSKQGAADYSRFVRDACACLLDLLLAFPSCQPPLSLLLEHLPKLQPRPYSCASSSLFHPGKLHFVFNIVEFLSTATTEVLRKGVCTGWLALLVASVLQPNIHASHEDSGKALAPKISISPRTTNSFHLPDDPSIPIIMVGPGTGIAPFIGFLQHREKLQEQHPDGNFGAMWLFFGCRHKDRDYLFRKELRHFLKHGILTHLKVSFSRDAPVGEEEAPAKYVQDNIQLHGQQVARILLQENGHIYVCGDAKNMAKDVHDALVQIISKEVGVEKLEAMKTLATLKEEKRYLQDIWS
UniProt Q9Y2Z2: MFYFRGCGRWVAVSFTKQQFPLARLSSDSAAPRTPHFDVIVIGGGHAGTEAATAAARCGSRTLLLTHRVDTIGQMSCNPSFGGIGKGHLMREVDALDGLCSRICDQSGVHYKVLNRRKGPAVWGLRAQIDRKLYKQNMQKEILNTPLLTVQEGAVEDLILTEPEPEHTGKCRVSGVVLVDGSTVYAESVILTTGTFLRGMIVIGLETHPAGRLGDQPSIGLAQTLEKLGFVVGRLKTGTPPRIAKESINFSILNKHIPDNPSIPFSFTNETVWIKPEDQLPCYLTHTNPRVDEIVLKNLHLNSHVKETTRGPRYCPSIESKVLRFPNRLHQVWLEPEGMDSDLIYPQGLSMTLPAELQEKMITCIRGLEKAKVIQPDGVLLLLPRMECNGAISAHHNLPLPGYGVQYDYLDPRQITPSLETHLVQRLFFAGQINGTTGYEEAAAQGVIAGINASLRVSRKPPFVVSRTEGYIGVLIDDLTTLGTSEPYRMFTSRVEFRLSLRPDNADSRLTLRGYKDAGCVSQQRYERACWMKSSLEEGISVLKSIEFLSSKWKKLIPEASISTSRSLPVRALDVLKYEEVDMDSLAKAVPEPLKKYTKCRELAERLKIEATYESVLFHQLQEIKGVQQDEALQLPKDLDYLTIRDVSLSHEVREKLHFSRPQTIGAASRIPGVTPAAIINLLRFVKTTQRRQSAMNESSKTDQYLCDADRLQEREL
UniProt P00414, whole entry, looked up: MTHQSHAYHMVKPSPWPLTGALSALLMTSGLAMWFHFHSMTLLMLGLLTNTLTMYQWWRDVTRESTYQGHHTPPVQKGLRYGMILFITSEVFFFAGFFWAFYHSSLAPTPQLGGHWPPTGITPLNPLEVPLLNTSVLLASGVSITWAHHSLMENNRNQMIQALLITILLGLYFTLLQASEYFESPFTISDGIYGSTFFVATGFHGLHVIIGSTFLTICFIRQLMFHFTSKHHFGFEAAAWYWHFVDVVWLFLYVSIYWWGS
UniProt Q13614, whole entry, looked up: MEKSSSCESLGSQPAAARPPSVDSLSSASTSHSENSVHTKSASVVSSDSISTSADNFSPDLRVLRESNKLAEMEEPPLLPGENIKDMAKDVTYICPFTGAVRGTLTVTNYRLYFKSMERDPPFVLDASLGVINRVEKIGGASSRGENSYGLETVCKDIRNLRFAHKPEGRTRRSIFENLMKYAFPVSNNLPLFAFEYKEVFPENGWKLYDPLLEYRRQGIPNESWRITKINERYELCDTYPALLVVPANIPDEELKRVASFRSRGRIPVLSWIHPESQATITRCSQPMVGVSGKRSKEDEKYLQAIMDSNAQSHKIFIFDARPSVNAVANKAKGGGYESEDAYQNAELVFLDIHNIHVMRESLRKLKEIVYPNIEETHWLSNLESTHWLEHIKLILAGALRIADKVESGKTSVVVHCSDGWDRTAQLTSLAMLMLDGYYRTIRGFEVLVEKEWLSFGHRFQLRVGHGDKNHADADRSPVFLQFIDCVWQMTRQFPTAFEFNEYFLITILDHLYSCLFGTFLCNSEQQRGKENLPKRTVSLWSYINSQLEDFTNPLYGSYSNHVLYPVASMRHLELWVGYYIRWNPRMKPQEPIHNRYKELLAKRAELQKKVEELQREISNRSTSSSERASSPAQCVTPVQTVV
UniProt P03923, whole entry, looked up: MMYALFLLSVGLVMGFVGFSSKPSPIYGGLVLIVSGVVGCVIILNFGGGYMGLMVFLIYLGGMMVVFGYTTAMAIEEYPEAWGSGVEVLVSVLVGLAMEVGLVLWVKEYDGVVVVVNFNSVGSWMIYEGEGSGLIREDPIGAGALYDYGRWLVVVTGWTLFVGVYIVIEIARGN
UniProt O94776: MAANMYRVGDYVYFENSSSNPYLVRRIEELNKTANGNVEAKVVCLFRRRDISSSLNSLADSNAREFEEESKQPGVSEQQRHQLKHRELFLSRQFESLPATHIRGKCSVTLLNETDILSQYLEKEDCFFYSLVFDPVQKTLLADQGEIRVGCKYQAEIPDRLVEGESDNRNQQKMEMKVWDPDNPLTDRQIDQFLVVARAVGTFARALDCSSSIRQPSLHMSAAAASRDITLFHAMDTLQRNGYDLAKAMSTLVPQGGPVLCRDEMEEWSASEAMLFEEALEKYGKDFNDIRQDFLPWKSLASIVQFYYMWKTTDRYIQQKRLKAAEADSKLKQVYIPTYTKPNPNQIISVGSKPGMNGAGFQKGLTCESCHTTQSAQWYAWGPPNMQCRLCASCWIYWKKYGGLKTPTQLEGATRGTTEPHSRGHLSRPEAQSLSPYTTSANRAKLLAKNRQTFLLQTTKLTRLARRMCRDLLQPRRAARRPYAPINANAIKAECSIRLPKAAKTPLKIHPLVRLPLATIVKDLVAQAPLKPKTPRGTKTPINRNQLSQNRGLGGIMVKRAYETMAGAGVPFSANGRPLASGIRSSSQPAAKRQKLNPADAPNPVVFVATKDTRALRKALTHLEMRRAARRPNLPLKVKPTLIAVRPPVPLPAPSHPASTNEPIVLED
UniProt Q86UE4: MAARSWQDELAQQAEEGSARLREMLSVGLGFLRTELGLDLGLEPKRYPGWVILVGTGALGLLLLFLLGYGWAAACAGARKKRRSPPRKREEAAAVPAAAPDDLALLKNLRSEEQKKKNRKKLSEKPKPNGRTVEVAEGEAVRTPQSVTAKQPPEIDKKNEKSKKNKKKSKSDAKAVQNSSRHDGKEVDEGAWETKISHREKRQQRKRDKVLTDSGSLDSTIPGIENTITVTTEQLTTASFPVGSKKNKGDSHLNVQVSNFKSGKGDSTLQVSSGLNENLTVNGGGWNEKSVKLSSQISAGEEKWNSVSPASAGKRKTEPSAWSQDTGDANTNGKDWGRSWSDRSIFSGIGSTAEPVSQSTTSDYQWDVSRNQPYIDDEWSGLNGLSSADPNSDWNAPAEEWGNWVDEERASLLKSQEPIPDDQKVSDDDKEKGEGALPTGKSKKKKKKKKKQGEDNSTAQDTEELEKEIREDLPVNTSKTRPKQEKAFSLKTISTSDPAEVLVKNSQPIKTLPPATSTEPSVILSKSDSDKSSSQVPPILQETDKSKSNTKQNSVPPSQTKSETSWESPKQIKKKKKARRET

How the values were obtained:
Experiment in all cases: log2 fold change, soluble protein after heating vs DMSO (PISA); higher = thermal stabilisation; K562 cells, 10 uM, 30 min; active = over 0.2 and 3.5 SD of the protein, either way, in both replicates (recomputed)
saracatinib = compound: CN1CCN(CCOc2cc(OC3CCOCC3)c3c(Nc4c(Cl)ccc5c4OCO5)ncnc3c2)CC1 [saracatinib]
Method in brief: (§1)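 K562 cells at 2×10^6 cells/mL were given 10 μM compound for 30 min. Aliquots then went through 3 min of heating across 48°C-58°C, were pooled, and were extracted in PBS with 0.5% NP-40 at 4°C, and the supernatant after 21,000xg for 90 min was quantified by TMTpro 16plex LC-MS/MS with channel sums equalised. Thermal stability relative to control samples, from duplicates, is given as log2 fold change.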

sotrastaurin = compound: CN1CCN(c2nc(C3=C(c4c[nH]c5ccccc45)C(=O)NC3=O)c3ccccc3n2)CC1 [sotrastaurin]
Method in brief: as §1

alvocidib = compound: CN1CC[C@H](c2c(O)cc(O)c3c(=O)cc(-c4ccccc4Cl)oc23)[C@H](O)C1 [alvocidib]
Method in brief: as §1

Tubastatin A = compound: CN1CCc2c(c3ccccc3n2Cc2ccc(C(=O)NO)cc2)C1 [Tubastatin A]
Method in brief: as §1

[1] = compound: CNC(=O)C1=CC=CC=C1NC2=NC(=NC=C2Cl)NC3=C(C=C(C=C3)N4CCOCC4)OC
Method in brief: as §1

defactinib = compound: CNC(=O)c1ccc(Nc2ncc(C(F)(F)F)c(NCc3nccnc3N(C)S(C)(=O)=O)n2)cc1 [defactinib]
Method in brief: as §1

rucaparib = compound: CNCc1ccc(-c2[nH]c3cc(F)cc4c3c2CCNC4=O)cc1 [rucaparib]
Method in brief: as §1

[2] = compound: CNc1nc(-c2ccc3c(N)n[nH]c3c2)cc(N2C[C@@H](C(=O)NC3CCCCC3)CC[C@H]2C)n1
Method in brief: as §1

encorafenib = compound: COC(=O)N[C@@H](C)CNc1nccc(-c2cn(C(C)C)nc2-c2cc(Cl)cc(NS(C)(=O)=O)c2F)n1 [encorafenib]
Method in brief: as §1

[3] = compound: COC(=O)[C@H](CCSC)NC(=O)C1=C(C=C(C=C1)NC[C@H](CS)N)C2=CC=CC=C2
Method in brief: as §1

[4] = compound: COC1=CC=C(C=C1)CN2C=CC3=C2C=C(C=C3)C(=O)NO
Method in brief: as §1

filanesib = compound: CON(C)C(=O)N1N=C(c2cc(F)ccc2F)S[C@@]1(CCCN)c1ccccc1 [filanesib]
Method in brief: as §1

zotarolimus = compound: CO[C@H]1C[C@@H]2CC[C@@H](C)[C@@](O)(O2)C(=O)C(=O)N2CCCC[C@H]2C(=O)O[C@H]([C@H](C)C[C@@H]2CC[C@H](n3cnnn3)[C@H](OC)C2)CC(=O)[C@H](C)/C=C(\C)[C@@H](O)[C@@H](OC)C(=O)[C@H](C)C[C@H](C)/C=C/C=C/C=C/1C [zotarolimus]
Method in brief: as §1

idasanutlin = compound: COc1cc(C(=O)O)ccc1NC(=O)[C@@H]1N[C@@H](CC(C)(C)C)[C@](C#N)(c2ccc(Cl)cc2F)[C@H]1c1cccc(Cl)c1F [idasanutlin]
Method in brief: as §1

alisertib = compound: COc1cc(Nc2ncc3c(n2)-c2ccc(Cl)cc2C(c2c(F)cccc2OC)=NC3)ccc1C(=O)O [alisertib]
Method in brief: as §1

[5] = compound: COc1cc2nc(-c3cc(F)ccc3O)nc(N[C@@H]3CNC[C@H]3C(C)(C)O)c2cc1OC
Method in brief: as §1

gefitinib = compound: COc1cc2ncnc(Nc3ccc(F)c(Cl)c3)c2cc1OCCCN1CCOCC1 [gefitinib]
Method in brief: as §1

[6] = compound: COc1cccc2cc(-c3nc([C@H]4CC[C@H](C(=O)O)CC4)n4ncnc(N)c34)[nH]c12
Method in brief: as §1

lapatinib = compound: CS(=O)(=O)CCNCc1ccc(-c2ccc3ncnc(Nc4ccc(OCc5cccc(F)c5)c(Cl)c4)c3c2)o1 [lapatinib]
Method in brief: as §1

pictilisib = compound: CS(=O)(=O)N1CCN(Cc2cc3nc(-c4cccc5[nH]ncc45)nc(N4CCOCC4)c3s2)CC1 [pictilisib]
Method in brief: as §1

Measured: log2 fold change

MTMR3 (UniProt Q13615)
inactive: saracatinib -0.038 | sotrastaurin -0.051 | alvocidib -0.066 | Tubastatin A -0.011 | [1] 0.013 | defactinib -0.053 | rucaparib -0.091 | [2] 0.039 | encorafenib -0.05 | [3] 0.026 | [4] -0.024 | filanesib 0.019 | zotarolimus -0.024 | idasanutlin 0.036 | alisertib 0.018 | [5] 0.013 | gefitinib 0.011 | [6] 0.08 | lapatinib 0.06 | pictilisib -0.055

MTMR1 (UniProt Q13613)
inactive: saracatinib -0.041 | sotrastaurin 0.05 | alvocidib -0.038 | Tubastatin A 0.012 | defactinib -0.011 | rucaparib 0.051 | [2] -0.089 | encorafenib 0.163 | [3] -0.024 | [4] 0.065 | filanesib 0.152 | zotarolimus -0.007 | idasanutlin 0.079 | alisertib -0.189 | [5] 0.054 | [6] 0.015 | lapatinib 0.015 | pictilisib 0.109

MTERF4 (UniProt Q7Z6M4)
inactive: saracatinib 0.177 | sotrastaurin 0.194 | alvocidib -0.059 | Tubastatin A -0.112 | [1] -0.012 | [2] 0.117 | [4] 0.1 | filanesib 0.063 | zotarolimus -0.076 | idasanutlin -0.068 | alisertib 0.149 | [5] 0.244 | gefitinib 0.016 | [6] -0.108 | lapatinib 0.118

MTX1 (UniProt Q13505)
inactive: saracatinib -0.009 | sotrastaurin 0.041 | alvocidib -0.049 | Tubastatin A -0.007 | [1] 0.024 | defactinib -0.034 | rucaparib -0.012 | [2] -0.022 | encorafenib -0.023 | [3] -0.044 | [4] 0.079 | filanesib -0.094 | zotarolimus 0.043 | idasanutlin -0.014 | alisertib 0.004 | [5] 0.154 | gefitinib 0.047 | [6] -0.015 | lapatinib 0.013 | pictilisib 0.041

MTCH2 (UniProt Q9Y6C9)
inactive: saracatinib 0 | sotrastaurin 0.05 | alvocidib -0.025 | Tubastatin A -0.155 | [1] 0.033 | defactinib 0.019 | rucaparib 0 | [2] -0.034 | encorafenib -0.005 | [3] 0.049 | [4] -0.024 | filanesib -0.062 | zotarolimus -0.046 | idasanutlin 0.021 | alisertib -0.01 | [5] -0.026 | gefitinib 0.031 | [6] 0.05 | lapatinib -0.028 | pictilisib 0.012

MTHFSD isoform 3 (UniProt Q2M296)
inactive: saracatinib -0.121 | sotrastaurin -0.166 | alvocidib 0.182 | Tubastatin A 0.128 | [1] 0.016 | defactinib -0.027 | [2] -0.015 | [3] -0.383 | [4] -0.208 | filanesib -0.087 | zotarolimus -0.093 | idasanutlin 0.091 | alisertib -0.614 | [5] -0.192 | [6] -0.139 | lapatinib 0 | pictilisib -0.132

MTRR isoform 1 (UniProt Q9UBK8)
inactive: saracatinib -0.115 | sotrastaurin 0.109 | alvocidib -0.014 | Tubastatin A 0.08 | [1] -0.06 | defactinib -0.069 | rucaparib 0.051 | [2] 0.106 | encorafenib 0.032 | [3] -0.117 | [4] 0.04 | filanesib 0.043 | zotarolimus 0.031 | idasanutlin -0.025 | alisertib -0.047 | [5] 0.044 | gefitinib -0.014 | [6] -0.025 | lapatinib -0.023 | pictilisib 0.016

MTO1 isoform 6 (UniProt Q9Y2Z2)
inactive: saracatinib -0.016 | sotrastaurin 0.001 | alvocidib -0.026 | Tubastatin A -0.043 | [1] 0.059 | defactinib 0.005 | rucaparib 0.232 | [2] -0.053 | encorafenib 0.006 | [3] -0.056 | [4] 0.003 | filanesib -0.021 | zotarolimus -0.022 | idasanutlin -0.099 | alisertib 0.093 | [5] 0.075 | gefitinib 0.075 | [6] -0.001 | lapatinib 0.013 | pictilisib 0.164

MRPS7 (UniProt Q9Y2R9)
inactive: saracatinib -0.012 | sotrastaurin -0.15 | alvocidib 0.029 | Tubastatin A 0.04 | [1] 0.049 | defactinib 0.064 | rucaparib 0.146 | [2] 0.091 | encorafenib 0.054 | [3] -0.068 | [4] -0.02 | filanesib 0.042 | zotarolimus 0.045 | idasanutlin -0.053 | alisertib -0.072 | [5] -0.001 | gefitinib -0.095 | [6] -0.101 | lapatinib 0.077 | pictilisib -0.137

MT-CO3 (UniProt P00414)
inactive: saracatinib -0.088 | sotrastaurin 0.082 | alvocidib -0.224 | Tubastatin A 0.13 | defactinib -0.128 | [2] -0.019 | [3] -0.101 | [4] -0.104 | filanesib -0.184 | zotarolimus 0.128 | idasanutlin -0.395 | alisertib 0.145 | [5] 0.17 | [6] 0.048 | lapatinib 0.012

MRTO4 (UniProt Q9UKD2)
inactive: saracatinib -0.059 | sotrastaurin -0.137 | alvocidib 0.007 | Tubastatin A 0.213 | [1] 0.042 | defactinib 0.088 | rucaparib 0.288 | [2] 0 | encorafenib 0.239 | [3] -0.053 | [4] -0.097 | filanesib 0.4 | zotarolimus 0.219 | idasanutlin 0.055 | alisertib -0.162 | [5] 0.02 | gefitinib 0.003 | [6] -0.235 | lapatinib 0.103 | pictilisib -0.029

Copied from the entries so far (two entries):
MRPS7 (UniProt Q9Y2R9)
inactive: saracatinib -0.012 | sotrastaurin -0.15 | alvocidib 0.029 | Tubastatin A 0.04 | [1] 0.049 | defactinib 0.064 | rucaparib 0.146 | [2] 0.091 | encorafenib 0.054 | [3] -0.068 | [4] -0.02 | filanesib 0.042 | zotarolimus 0.045 | idasanutlin -0.053 | alisertib -0.072 | [5] -0.001 | gefitinib -0.095 | [6] -0.101 | lapatinib 0.077 | pictilisib -0.137

MT-CO3 (UniProt P00414)
inactive: saracatinib -0.088 | sotrastaurin 0.082 | alvocidib -0.224 | Tubastatin A 0.13 | defactinib -0.128 | [2] -0.019 | [3] -0.101 | [4] -0.104 | filanesib -0.184 | zotarolimus 0.128 | idasanutlin -0.395 | alisertib 0.145 | [5] 0.17 | [6] 0.048 | lapatinib 0.012

The list continues:

MTHFD2L (UniProt Q9H903)
inactive: saracatinib 0.075 | sotrastaurin -0.076 | alvocidib -0.256 | defactinib -0.048 | [2] -0.054 | [3] 0.023 | filanesib -0.004 | zotarolimus 0.12 | alisertib 0.051 | [6] -0.394

MTMR2 (UniProt Q13614)
inactive: saracatinib 0.028 | sotrastaurin 0.012 | alvocidib -0.063 | Tubastatin A 0.004 | [1] -0.003 | defactinib -0.061 | rucaparib -0.035 | [2] -0.017 | encorafenib 0.01 | [3] 0.014 | [4] -0.074 | filanesib -0.005 | zotarolimus 0.018 | idasanutlin -0.032 | alisertib 0.019 | [5] -0.026 | gefitinib 0.051 | [6] 0.09 | lapatinib 0.042 | pictilisib 0.052

MT-ND6 (UniProt P03923)
inactive: saracatinib 0.021 | sotrastaurin -0.036 | alvocidib 0.085 | Tubastatin A 0.06 | defactinib -0.022 | rucaparib -0.067 | [2] -0.254 | encorafenib 0.021 | [3] -0.027 | [4] -0.184 | filanesib 0.186 | zotarolimus 0.055 | idasanutlin 0.234 | alisertib -0.004 | gefitinib 0.023 | [6] 0.101

MTA2 (UniProt O94776)
inactive: saracatinib -0.053 | sotrastaurin -0.168 | alvocidib -0.132 | Tubastatin A -0.006 | [1] -0.03 | defactinib -0.106 | rucaparib 0.052 | [2] 0.018 | encorafenib 0.145 | [3] -0.009 | [4] 0.095 | filanesib 0.02 | zotarolimus 0.057 | idasanutlin 0.005 | alisertib -0.034 | [5] -0.024 | gefitinib 0.014 | [6] -0.114 | lapatinib 0.029 | pictilisib -0.008

MRPL58 (UniProt Q14197)
inactive: saracatinib -0.136 | sotrastaurin -0.055 | alvocidib 0.01 | Tubastatin A 0.058 | [1] -0.043 | defactinib 0.154 | rucaparib 0.088 | [2] 0.091 | encorafenib 0.062 | [3] 0.02 | [4] 0.032 | filanesib 0.108 | zotarolimus 0.105 | idasanutlin -0.013 | alisertib -0.001 | [5] -0.03 | gefitinib -0.007 | [6] -0.051 | lapatinib 0.074 | pictilisib 0.046

MTDH (UniProt Q86UE4)
inactive: saracatinib 0.008 | sotrastaurin 0.024 | alvocidib 0.295 | Tubastatin A 0.028 | [1] 0 | defactinib 0.399 | rucaparib 0.348 | [2] 0.061 | encorafenib 0.105 | [3] 0.07 | [4] -0.029 | filanesib 0.398 | zotarolimus -0.049 | idasanutlin 0.171 | alisertib -0.041 | [5] -0.069 | gefitinib -0.018 | [6] -0.142 | lapatinib 0.172 | pictilisib -0.022
